# Percent effect of library compounds

Protein sequences, listed by entry. Tags and fused reporters are not part of them. Residues count along the entry.
UniProt A4I591, 1-473: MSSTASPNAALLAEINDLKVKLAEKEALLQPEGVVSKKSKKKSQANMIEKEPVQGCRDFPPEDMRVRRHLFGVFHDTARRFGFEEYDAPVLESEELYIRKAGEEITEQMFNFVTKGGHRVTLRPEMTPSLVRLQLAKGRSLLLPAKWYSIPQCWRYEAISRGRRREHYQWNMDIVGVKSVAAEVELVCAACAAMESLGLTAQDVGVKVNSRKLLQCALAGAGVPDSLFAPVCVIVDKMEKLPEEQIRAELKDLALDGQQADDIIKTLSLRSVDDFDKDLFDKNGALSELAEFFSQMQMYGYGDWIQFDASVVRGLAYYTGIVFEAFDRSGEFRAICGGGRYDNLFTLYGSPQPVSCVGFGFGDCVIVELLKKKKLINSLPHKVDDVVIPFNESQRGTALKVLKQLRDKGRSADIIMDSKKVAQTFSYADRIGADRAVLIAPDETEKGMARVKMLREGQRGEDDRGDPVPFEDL
UniProt P9WFT3, whole entry: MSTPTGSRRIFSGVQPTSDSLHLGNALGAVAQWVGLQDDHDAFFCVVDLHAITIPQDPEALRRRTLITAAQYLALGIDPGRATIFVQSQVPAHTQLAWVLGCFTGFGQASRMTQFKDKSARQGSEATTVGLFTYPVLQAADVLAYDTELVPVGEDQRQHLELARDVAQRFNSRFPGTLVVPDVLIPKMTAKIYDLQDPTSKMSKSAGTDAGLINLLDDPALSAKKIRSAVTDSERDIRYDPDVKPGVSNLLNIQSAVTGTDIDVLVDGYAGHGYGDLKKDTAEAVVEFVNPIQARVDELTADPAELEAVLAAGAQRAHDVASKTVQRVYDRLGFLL

Each number is a percent effect as filed. How 0% and 100% were set is not recorded. Most values in the screen are low, and negative values occur. This is an unselected part of the compounds tested. A dash means the value is not listed here; it may have been measured.

LiHisRS: 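Histidine-tRNA ligase, Leishmania infantum (UniProt A4I591). Enzyme assay of histidyl-tRNA synthetase; the read-out is not stated. Compounds at 30 µM. The record gives no direction; compounds that gave an IC50 in retests scored well above the rest, so higher reads as stronger inhibition. The assay is labelled LdHisRS but filed under L. infantum. About 69,000 compounds were tested under these conditions; 0.6% (about 410) showed 50% or more at least once.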
T. brucei: 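Whole-parasite assay of Trypanosoma brucei over 72 hours; the read-out is not stated. Compounds at 30 µM. Direction is inferred from retests: higher values go with stronger inhibition. Values scatter widely below zero; nearly all retest evidence comes from the higher of the two concentrations used. Of about 64,000 compounds tested this way, about 940 (1.5%) reached 50% or more in at least one test.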
MtTrpRS: 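Enzyme assay of tryptophanyl-tRNA synthetase; the read-out is not stated. Target: Tryptophan-tRNA ligase, Mycobacterium tuberculosis (UniProt P9WFT3). Concentration: 10 µM. Higher most likely means stronger inhibition; the record gives no direction and few retests gave an IC50. About 65,000 compounds were tested under these conditions; 0.098% (about 64) showed 50% or more at least once.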

Compound | LiHisRS | T. brucei | MtTrpRS
c1cc(-c2c[nH]c([C@@H]3COCCN3Cc3csnn3)n2)ccn1 | 8.108 | -50.16 | 0.3814
Cc1noc(C)c1CN1CCc2ncc(Cn3cccn3)n2CC1.O=C(O)C(F)(F)F | - | -64.93 | -
CCN1CCN(C(=O)C2CCCc3[nH]ncc32)CC1 (stereo not drawn) | 15.15 | -20.83 | 1.016
Cn1c(CCNc2nccnc2C#N)nc2ccc(F)cc21 | 24.66 | -8.017 | 0.8942
O=C1CCCN1C1CCCN(CCn2cc(Cl)cn2)C1 (stereo not drawn) | 15.66 | -34.34 | 6.427
CCCc1cc(C(=O)N(Cc2cccnc2)C2CCCCC2)[nH]n1 | 24.18 | -50.73 | 3.311
CC(C)NS(=O)(=O)c1cc(C(=O)O)cc(-c2ccc(CN(C)C)cc2)c1 | 1.887 | -62.51 | -1.676
Cn1nc2c(cc1=O)CN(Cc1coc(-c3cccc(F)c3)n1)CC2 | 90.35 | 75.84 | -1.695
O=C(c1ccc(SC(F)(F)F)cc1)N1CCOCC1c1ncon1 (stereo not drawn) | -10.96 | -7.052 | 0.6686
NC(=O)COc1cccc(C(=O)N2CCCC(n3ccnc3)C2)c1 (stereo not drawn) | 9.231 | 16.2 | -0.2916
c1cnnc(N2CCCC2CNc2ncnc3sccc23)c1 (stereo not drawn) | 16.52 | 12.79 | -2.428
COc1cc(N2CC[C@H](O)[C@@H]2Cc2cccnc2)ncn1 | 13.76 | 38.14 | -1.757
Cc1ccc(N2CCC(NCc3cnc(C4CCC4)s3)CC2)nc1 | -5 | -6.711 | 6.893
O=C(COc1coc(CN2CCCCC2)cc1=O)Nc1ccccc1Cl | 13.59 | 22.62 | 0.603
O=C(N[C@H]1COC[C@@H]1N1CCCC1)c1csc(-c2cccs2)n1 | 22.35 | -40 | 0.3028
O=C(CC1CC1)N1CCCn2c(nnc2Cn2cccc2)C1 | 17.24 | -65.07 | -4.207
CN(Cc1ccc2c(c1)OCCO2)C(=O)Cn1cccnc1=O | 20.27 | -9.094 | -3.125
O=C(NC1CC1)c1cnc2n1CCCC2 | 9.804 | -33.06 | -1.069
N#Cc1cccnc1NCc1ccc(S(=O)(=O)NCC2CCCO2)cc1 (stereo not drawn) | -5.833 | -19.95 | 6.398
Fc1cnc(N2CCCC3(CCN(Cc4nccs4)C3)C2)nc1 (stereo not drawn) | 17.43 | 3.538 | 2.674
CS(=O)(=O)c1cn[nH]c1C1CCCCN1C(=O)c1ccsc1 (stereo not drawn) | 20 | -5.17 | -3.652
COc1ccc(Cc2ncc3c(n2)CN(C(=O)CN(C)C)C3)cc1 | 3.226 | 6.937 | -2.716
O=C(NC1CC(=O)N(C2CC2)C1)c1ccc(Cl)s1 (stereo not drawn) | 7.692 | -38.11 | 0.5146
CC(C)n1ccnc1C1CCN(C(=O)N2CCCC2)CC1 | 13.6 | -40.21 | -1.522
CN(C)C[C@H]1OC[C@@H]2CCN(S(=O)(=O)c3ccc(F)cc3)C[C@@H]21 | -4.587 | - | -2.368
Cc1ccsc1CN(C)Cc1nc2c(cnn2C)c(=O)[nH]1 | -14.89 | -13.2 | 5.419
COc1cc(CN(CCCN(C)C)Cc2ccccn2)cc2c1OCO2 | 16.49 | - | -
O=C(Nc1ccccc1F)N(CCO)Cc1ccsc1 | 4 | -62.31 | -3.616
CS(=O)(=O)NC1CCCN(Cc2ccc(OCc3ccccn3)cc2)C1 (stereo not drawn) | 11.29 | 2.76 | -3.122
O=C(Cn1c(=O)n(Cc2ccco2)c2ncccc21)Nc1ccccn1 | 2.778 | -29.7 | -1.421
CC(=O)Nc1nc(C(=O)NC(C)c2ccc(C#N)cc2)cs1 (stereo not drawn) | 8.264 | 20.52 | -3.987
O=C1[C@H]2CC[C@H](CN(Cc3ccccc3OC(F)F)C2)N1CC1CC1 | 28.85 | - | 3.483
O=C(c1ccsc1)N1CCC(Nc2cccnn2)CC1 | 13.46 | - | -2.466
CCc1cnc(C)nc1NCCc1nc(N)cc(O)n1 | 6.25 | -17.96 | 4.124
CC(C(=O)N1CCCN(c2ncccc2C#N)CC1)n1cccn1 (stereo not drawn) | -1.515 | -12.77 | -1.462
[H][C@]12CN(CC3CC3)C(=O)[C@@]1([H])CN(S(=O)(=O)C1CC1)C2 | - | -54.24 | -
CC(C)N1CCC(Cc2cncc(-c3ccccc3C(=O)O)n2)C1 (stereo not drawn) | 16.49 | -1.226 | -
Cc1ccc2c(c1)C1(CCN(C(=O)C3CC3)CC1)CC2N1CCOCC1 (stereo not drawn) | 17.17 | - | -6.182
CN1CC(=O)N(c2ccccc2)CC12CCN(C(=O)c1cccs1)C2 (stereo not drawn) | 11.93 | - | 2.215
CC(C)N(C)Cc1cncc2c1CCN(Cc1ccoc1)C2 | 4.545 | - | -
COc1ccccc1CC(NC(=O)N1CCOCC1)C(C)C (stereo not drawn) | 6.667 | -52.59 | -0.6796
Cc1cnn(CCNCc2ccccc2F)c1 | 11.01 | - | 0.4838
COCCn1cc(C(=O)N2CCCC(n3cncn3)C2)ccc1=O (stereo not drawn) | 8.264 | -6.743 | 3.662
CC1CCCN(C(=O)c2cc(-c3ccco3)cs2)C1 (stereo not drawn) | 37.5 | 1.452 | 0.5424
O=C(CCNC(=O)C1CCCC1)NCc1cccnc1-n1cncn1 | 19.7 | 33.44 | -2.047
CSc1ccc2c(C)cc(N[C@@H](C)CO)nc2c1 | 10 | 25.63 | 8.149
CN(C)c1ncc2c(n1)C1(CCN(Cc3ccccc3F)C1)COC2 (stereo not drawn) | 27.03 | - | 2.365
Cc1ccc(N2CCN(C(=O)COc3ccccc3)CC2)nn1 | 25 | -43.18 | -0.6415
Nc1nnc(CCCNC(=O)c2ccc(C3CCCNC3)cc2)s1 (stereo not drawn) | 15.62 | 0.2761 | 4.025
O=C(O)C(F)(F)F.[H][C@@]12CCN(c3ncccn3)[C@]1([H])CC[C@H](C(=O)NCc1cccs1)O2 | - | -16.87 | -
CC(=O)N1CCCN(C(=O)c2cnc(OC(C)C)c(Cl)c2)CC1 | 9.6 | -42.03 | 1.956
CC(NC(=O)NCCNc1cccc(F)c1C#N)c1nccs1 (stereo not drawn) | 11.76 | -38.86 | -2.676
c1ccc(CCCn2cc(-c3nc(CN4CCOCC4)no3)nn2)cc1 | 8.602 | 0.4747 | -1.308
O=C(N1CCOCC1CO)C1(c2cccs2)CCCC1 (stereo not drawn) | 5.085 | -27.69 | -0.07886
CC(=O)NCCCSCCOc1cccc(C#N)c1 | 6.452 | -24.91 | 3.077
COc1cccc2c1OCC(C(=O)N1CCN(C3CCCC3)C(=O)C1)C2 (stereo not drawn) | 12 | -23.79 | 0.3623
CC(=O)N1CCN(Cc2cccs2)CC2(CC(=O)N(C)C2)C1.O=C(O)C(F)(F)F (stereo not drawn) | - | -45.81 | -
Fc1ccc(CC2CCN(Cc3nccs3)CC2)cc1 | 13.33 | 0.7022 | -6.093
CCn1ncc(NC(=O)CCn2ncc3c(Cl)cccc32)c1C | 12.07 | -34.39 | 0.2591
CC(=O)Nc1ccc(CNC(=O)CNCc2nnc(C)o2)cc1 | 17.65 | -59.27 | -2.714
COc1ncc(-c2nccn2-c2ccccc2CN2CCOCC2)cn1 | 3.03 | -34.25 | -4.727
CN(C)[C@@H]1CCN(C(=O)c2cccc(C#N)c2)[C@H]1Cc1cnn(C)c1 | 10 | - | -4.066
CN1CCN(C2CCN(C(=O)CCC3CCCC3)CC2)CC1.O=C(O)C(=O)O | - | -18.86 | -
CC(C)c1nc(C2CCCN2C(=O)c2cnc[nH]2)no1 (stereo not drawn) | -3.077 | -53.12 | -3.79
O=C(NCCc1ccn(-c2ccccc2)n1)N1CCSCC1 | -0.885 | - | 4.89
CNC(=O)C1CCN(C(=O)c2ccn(-c3ccc(F)cc3)n2)CC1 | 24.62 | 9.823 | -1.846
O=C(C1CCCOC1)N1CCc2ccc(F)cc21 (stereo not drawn) | 15.52 | -30.94 | 2.169
NC(=O)c1ccc(C2CCCN2C(=O)CCn2nnc3ccccc32)s1 (stereo not drawn) | 8.065 | -17.05 | -3.754
Cc1cc(C(=O)NCCc2c(C)nn(C)c2C)nc(N2CCCCC2)n1 | 4.828 | 11.39 | 15.22
Cc1nc(CCCNC(=O)C2CC(=O)N(C(C)(C)C)C2)sc1C (stereo not drawn) | 9.524 | -12.67 | 1.727
Cc1ccc(CN2CCC(Cc3nnc(CO)n3C)CC2)cc1C | 0 | -22.34 | -7.064
Cc1ccc(OCC(O)CN2CCC(Cn3cccn3)CC2)cc1 (stereo not drawn) | 28.12 | 24.68 | 4.916
CCOCC1CN(C(=O)c2cscn2)Cc2nnn(CC3CC3)c21 (stereo not drawn) | 10.53 | - | -1.482

From ChEMBL document CHEMBL3988442, “University of Dundee, Small-Polar-MMV Screening Library” (2021).